This passage reports binding results from patent publication US20030166623A1.

By UniProt entry, the sequences of proteins in these tests, tags left out. Where a name states a change or a piece, a line headed by the entry shows the natural chain unless it says otherwise. Residues count along the entry.
UniProt P10275: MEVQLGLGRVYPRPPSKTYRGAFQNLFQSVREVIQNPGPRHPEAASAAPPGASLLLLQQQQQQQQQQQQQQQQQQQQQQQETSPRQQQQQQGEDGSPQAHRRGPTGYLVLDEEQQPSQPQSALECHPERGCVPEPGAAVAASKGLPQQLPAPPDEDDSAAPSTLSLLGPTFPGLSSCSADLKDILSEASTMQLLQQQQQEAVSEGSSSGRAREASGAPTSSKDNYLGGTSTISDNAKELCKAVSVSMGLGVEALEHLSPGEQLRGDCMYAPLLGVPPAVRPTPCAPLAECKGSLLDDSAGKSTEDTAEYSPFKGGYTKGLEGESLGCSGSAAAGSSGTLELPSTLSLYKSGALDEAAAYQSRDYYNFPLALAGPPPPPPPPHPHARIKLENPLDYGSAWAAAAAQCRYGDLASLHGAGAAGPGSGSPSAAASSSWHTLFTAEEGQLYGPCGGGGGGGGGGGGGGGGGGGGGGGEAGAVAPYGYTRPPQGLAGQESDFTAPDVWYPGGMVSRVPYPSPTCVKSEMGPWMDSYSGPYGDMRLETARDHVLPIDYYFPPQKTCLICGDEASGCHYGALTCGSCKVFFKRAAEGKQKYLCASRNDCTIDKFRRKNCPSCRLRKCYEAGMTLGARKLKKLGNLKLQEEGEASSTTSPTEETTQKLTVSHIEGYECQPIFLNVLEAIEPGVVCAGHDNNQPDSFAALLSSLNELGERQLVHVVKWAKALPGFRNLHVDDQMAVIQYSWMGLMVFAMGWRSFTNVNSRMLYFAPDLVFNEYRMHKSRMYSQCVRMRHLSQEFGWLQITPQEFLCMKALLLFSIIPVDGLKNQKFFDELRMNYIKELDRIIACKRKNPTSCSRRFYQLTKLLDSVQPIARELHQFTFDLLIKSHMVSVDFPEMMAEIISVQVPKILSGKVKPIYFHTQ
AR-DBD + LBD (yeast 2-hybrid bait): residues 506-920 of P10275
UniProt P03372: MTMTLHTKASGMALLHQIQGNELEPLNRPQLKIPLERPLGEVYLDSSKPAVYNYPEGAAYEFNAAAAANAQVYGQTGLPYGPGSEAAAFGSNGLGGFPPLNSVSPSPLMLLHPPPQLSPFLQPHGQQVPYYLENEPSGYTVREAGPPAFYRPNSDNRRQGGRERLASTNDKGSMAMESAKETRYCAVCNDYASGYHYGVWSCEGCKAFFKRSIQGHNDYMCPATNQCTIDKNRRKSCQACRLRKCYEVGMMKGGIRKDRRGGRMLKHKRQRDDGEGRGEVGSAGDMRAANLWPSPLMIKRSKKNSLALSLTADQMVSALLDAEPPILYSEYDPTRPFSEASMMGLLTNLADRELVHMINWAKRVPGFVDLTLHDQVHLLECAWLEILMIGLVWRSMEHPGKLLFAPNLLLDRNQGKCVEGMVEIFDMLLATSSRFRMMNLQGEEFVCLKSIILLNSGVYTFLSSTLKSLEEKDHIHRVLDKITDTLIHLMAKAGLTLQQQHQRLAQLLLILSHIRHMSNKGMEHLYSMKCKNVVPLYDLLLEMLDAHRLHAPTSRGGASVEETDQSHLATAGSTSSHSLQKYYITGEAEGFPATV
UniProt Q61026, residues 730-1121: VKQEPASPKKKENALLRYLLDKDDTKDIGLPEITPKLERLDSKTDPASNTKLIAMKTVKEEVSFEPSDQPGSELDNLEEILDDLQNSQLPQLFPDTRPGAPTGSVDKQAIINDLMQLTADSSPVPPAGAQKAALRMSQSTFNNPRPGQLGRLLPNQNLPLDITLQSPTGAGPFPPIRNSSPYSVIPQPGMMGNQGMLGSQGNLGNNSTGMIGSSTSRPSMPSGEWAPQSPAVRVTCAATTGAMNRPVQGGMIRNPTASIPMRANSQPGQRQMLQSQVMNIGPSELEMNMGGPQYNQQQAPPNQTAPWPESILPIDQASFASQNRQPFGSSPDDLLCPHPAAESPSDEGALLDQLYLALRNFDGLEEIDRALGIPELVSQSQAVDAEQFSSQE
UniProt Q5R8Z4: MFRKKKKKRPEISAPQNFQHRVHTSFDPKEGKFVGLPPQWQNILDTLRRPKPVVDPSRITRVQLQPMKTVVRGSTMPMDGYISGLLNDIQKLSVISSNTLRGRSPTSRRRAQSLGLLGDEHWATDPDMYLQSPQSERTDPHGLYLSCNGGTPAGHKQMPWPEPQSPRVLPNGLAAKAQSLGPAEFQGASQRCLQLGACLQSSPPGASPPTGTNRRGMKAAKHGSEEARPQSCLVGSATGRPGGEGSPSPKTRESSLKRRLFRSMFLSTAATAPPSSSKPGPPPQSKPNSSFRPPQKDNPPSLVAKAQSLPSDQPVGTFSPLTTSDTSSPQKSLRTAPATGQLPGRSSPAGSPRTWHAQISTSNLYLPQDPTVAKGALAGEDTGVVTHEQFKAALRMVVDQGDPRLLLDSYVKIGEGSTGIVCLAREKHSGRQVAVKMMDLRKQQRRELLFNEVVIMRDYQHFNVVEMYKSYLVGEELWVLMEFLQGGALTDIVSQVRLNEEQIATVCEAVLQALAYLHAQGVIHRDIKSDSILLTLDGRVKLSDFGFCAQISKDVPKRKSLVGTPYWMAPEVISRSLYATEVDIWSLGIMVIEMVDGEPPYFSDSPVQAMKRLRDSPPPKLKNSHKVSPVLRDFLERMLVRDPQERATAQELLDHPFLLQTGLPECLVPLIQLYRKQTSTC

No constants are given. Whether binding was seen depends on the method and setting. For some assays here: In cells and extracts the contact can be indirect. Some entries that bind do so weakly or less than the wild type.

In assay [1] the target is full length androgen receptor (UniProt P10275). In words: GST pulldown of full length 35S-labeled androgen receptor, with or without DHT or bicalutamide.
In assay [2] the target is androgen receptor from LNCaP cells (UniProt P10275). Nature of the assay: GST pulldown, anti-androgen receptor Western blot. For orientation: A western blot detects proteins with antibodies after separation by electrophoresis.
For assay [3], the target named is estrogen receptor a (ER) (UniProt P03372). Nature of the assay: GST pulldown of 35S-labeled ER, autoradiogram.
Assay [4] addresses androgen receptor from LNCaP cells (UniProt P10275). In words: GST pulldown from LNCaP cells, anti-androgen receptor immunoblotting.
Assay [5] addresses full length androgen receptor (UniProt P10275). Nature of the assay: GST pulldown of full length 35S-labeled androgen receptor, autoradiogram.
Assay [6] has the same target. Nature of the assay: GST pulldown of 35S-labeled in vitro transcribed/translated androgen receptor.
Assay [7] deals with estrogen receptor a (ER) (UniProt P03372). Nature of the assay: GST pulldown of 35S-labeled ER, with or without estradiol or tamoxifen.
Assay [8] concerns the target full length androgen receptor (UniProt P10275). Nature of the assay: GST pulldown, autoradiogram.
The target in assay [9] is AR-DBD + LBD (yeast 2-hybrid bait) (UniProt P10275). Nature of the assay: yeast 2-hybrid, β-galactosidase.

Consider “GST-GRIP1(730-1121) (from UniProt Q61026 730-1121)”, for which the binding result in [1] is “binds”.

Consider “GST-PAKSI(256-682) (from UniProt Q5R8Z4 256-681)”, for which the binding result in assay [2], in assay [3], in [4], in assay [1], in [5] and in [6] was “binds” in each case. Further, the binding result in [7] and in assay [8] was “binds” throughout.

For “pACT2-PAK (yeast 2-hybrid prey) (from UniProt Q5R8Z4 256-681)”, the binding entry in assay [9] is “binds”.

“pGAD424-GRIP1 (yeast 2-hybrid prey, GRIP1 amino acids 730-1121) (from UniProt Q61026 730-1121)”: the binding result in [9] is recorded as “binds”.
